# Source: PubChem BioAssay AID1259405 (NCATS, 2018)
# Aim: 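Knock-downs that lift recombinant protein yield in hamster ovary cells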 (primary screen)
# System: Chinese hamster CHO-K1 ovary cells with stable secreted eGFP expression
# Reagents: single siRNA against mouse genes, 0.8 pmol siRNA per well (2 µl of 400 nM stock)
# Duration: 3 days
# Measured: 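Percent of the per-plate non-targeting control median for intracellular GFP per well by laser scanning cytometry and for cell viability by ATP luminescence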
# Reading the numbers: GFP, % of control: higher = more GFP per well, higher productivity; viability (ATP), % of control: higher = more viable cells (more ATP)
# Call rule: 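Called active when intracellular GFP, relative to negative control, is at or above 120%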
# This is one part, drawn at random, of about 50,000 deposited reagents. About 4,000 of them (8%) were called active. 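Mouse siRNA library applied to hamster cells; one well for each siRNA.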 The numbers tell different reagents against one gene apart.
gene symbol,reagent,"GFP, % of control","viability (ATP), % of control",Call
Rgma (GeneID 244058),1,68.3,66.4,inactive
Rgma (GeneID 244058),2,44,52,inactive
Rgma (GeneID 244058),3,69.9,79.7,inactive
Slc37a2 (GeneID 56857),1,100,54.5,inactive
Slc37a2 (GeneID 56857),2,108,55,inactive
Slc37a2 (GeneID 56857),3,41.2,33.5,inactive
Tfr2 (GeneID 50765),1,78,73.3,inactive
Tfr2 (GeneID 50765),2,102,90,inactive
Tfr2 (GeneID 50765),3,91.4,101,inactive
Ankrd13c (GeneID 433667),1,134,84.8,active
Ankrd13c (GeneID 433667),2,65.2,78.3,inactive
Ankrd13c (GeneID 433667),3,60.9,50.7,inactive
Tas2r106 (GeneID 387341),1,93.6,86,inactive
Tas2r106 (GeneID 387341),2,100,101,inactive
Tas2r106 (GeneID 387341),3,85.6,96.3,inactive
Pramel3c (GeneID 331529),1,85.9,75.2,inactive
Pramel3c (GeneID 331529),2,57.4,44.4,inactive
Pramel3c (GeneID 331529),3,62.8,99.9,inactive
Rnf183 (GeneID 76072),1,42.1,22.7,inactive
Rnf183 (GeneID 76072),2,78.8,91.8,inactive
Rnf183 (GeneID 76072),3,54.9,71.6,inactive
Cyp11b2 (GeneID 13072),1,59.2,56.7,inactive
Cyp11b2 (GeneID 13072),2,65.5,32.2,inactive
Cyp11b2 (GeneID 13072),3,69.4,77.3,inactive
Prpf40a (GeneID 56194),1,63.2,80.9,inactive
Prpf40a (GeneID 56194),2,63.6,79.1,inactive
Prpf40a (GeneID 56194),3,118,61.3,inactive
Mterf2 (GeneID 74238),1,106,107,inactive
Mterf2 (GeneID 74238),2,72.1,82.8,inactive
Mterf2 (GeneID 74238),3,39.1,32.1,inactive
Pah (GeneID 18478),1,73.5,89.1,inactive
Pah (GeneID 18478),2,114,109,inactive
Pah (GeneID 18478),3,88,76.8,inactive
Sass6 (GeneID 72776),1,58.2,37.5,inactive
Sass6 (GeneID 72776),2,89.1,80.3,inactive
Sass6 (GeneID 72776),3,73,76.4,inactive

An excerpt from above, reduced to “viability (ATP), % of control”.
Prpf40a (GeneID 56194) #3: 61.3
Mterf2 (GeneID 74238) #1: 107
Mterf2 (GeneID 74238) #2: 82.8
